Results on two sequences are retold here after publication PMC9723642.

Sequences of proteins named here, by UniProt entry; tags and fusion partners are left off. Residues count along the entry.
UniProt P19338, 2-710: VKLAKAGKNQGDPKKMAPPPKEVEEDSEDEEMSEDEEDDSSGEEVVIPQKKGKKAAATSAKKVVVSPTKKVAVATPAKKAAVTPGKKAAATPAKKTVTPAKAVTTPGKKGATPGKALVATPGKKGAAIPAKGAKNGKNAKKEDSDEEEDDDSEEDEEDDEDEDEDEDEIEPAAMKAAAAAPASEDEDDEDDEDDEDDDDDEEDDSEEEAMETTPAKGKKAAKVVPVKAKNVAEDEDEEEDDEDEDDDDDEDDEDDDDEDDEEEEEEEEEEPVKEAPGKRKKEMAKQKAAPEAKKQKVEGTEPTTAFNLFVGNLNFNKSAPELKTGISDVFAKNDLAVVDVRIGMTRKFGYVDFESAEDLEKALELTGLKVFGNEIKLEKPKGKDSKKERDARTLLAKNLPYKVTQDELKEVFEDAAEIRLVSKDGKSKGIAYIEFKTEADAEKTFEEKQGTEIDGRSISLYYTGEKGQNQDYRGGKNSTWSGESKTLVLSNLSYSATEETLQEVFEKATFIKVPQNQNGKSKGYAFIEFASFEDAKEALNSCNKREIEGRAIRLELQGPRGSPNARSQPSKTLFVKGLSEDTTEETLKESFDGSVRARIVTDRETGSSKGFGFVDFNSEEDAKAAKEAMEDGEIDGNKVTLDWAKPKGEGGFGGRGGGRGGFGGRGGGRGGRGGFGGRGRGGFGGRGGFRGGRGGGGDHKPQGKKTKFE

Holding throughout (test): pull-down
Series [1] concerns the target T1, Nsr1 wild type (Saccharomyces cerevisiae (Y32)) (UniProt P27476).
T1 sequence (looked up, limits assumed): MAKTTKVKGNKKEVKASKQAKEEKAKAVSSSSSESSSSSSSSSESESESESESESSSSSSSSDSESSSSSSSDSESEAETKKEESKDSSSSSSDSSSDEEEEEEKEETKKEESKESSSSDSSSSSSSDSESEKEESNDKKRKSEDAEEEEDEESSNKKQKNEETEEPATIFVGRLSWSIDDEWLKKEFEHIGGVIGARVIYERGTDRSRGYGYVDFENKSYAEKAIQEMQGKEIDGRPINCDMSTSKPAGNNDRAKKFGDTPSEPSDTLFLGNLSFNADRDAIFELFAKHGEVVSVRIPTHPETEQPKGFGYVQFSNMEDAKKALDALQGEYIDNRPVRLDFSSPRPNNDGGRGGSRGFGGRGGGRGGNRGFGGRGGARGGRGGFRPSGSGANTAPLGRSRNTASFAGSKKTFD
As to conditions: 800 mM KCl wash, pull-down: RNA folded in 100 mM KCl, 90 min at room temperature, washes 200-800 mM KCl, protein in an extract, label: 3' biotin-TEG.

Series [2] deals with T2, Nsr1 from hmt1Δ strain (Saccharomyces cerevisiae (Y32 hmt1Δ)) (UniProt P27476).
T2 sequence (looked up, limits assumed): T1 sequence (looked up, limits assumed)
As to conditions: hmt1Δ extract vs HMT1wt; pull-down: RNA folded in 100 mM KCl, 90 min at room temperature, washes 200-800 mM KCl; protein in an extract; label: 3' biotin-TEG.

Series [3] addresses endogenous NCL (H1299) (Homo sapiens) (UniProt P19338). As to conditions: pull-down: RNA folded in 100 mM KCl, 90 min at room temperature, washes 200-800 mM KCl, label: 3' biotin-TEG.

The exact form of at least one protein or probe is not confirmed. Results from cells or extracts need not show a direct contact. A weaker result is weaker than the reference pair of the same experiment. For part of these data: Tags and fusion partners may be left off the protein sequences shown. For part of these data: At least one verdict was read from the data and is not stated in words by the source.

On to GAGGCAGUAGCAGUAGAA [GM], for which the binding result in series [1] (residual binding) is “binds more weakly”.

Consider GGGGCAGGAGCAGGAGGA [GQ], for which the binding result is “binds” in series [1]; “binds more weakly” in series [2]; “binds more weakly” in series [3] (cells treated with MS023, dose-dependent decrease, protein in an …); “binds more weakly” in series [3] (cells treated with MTA, dose-dependent decrease, protein in an extract); “binds” in series [3] (untreated control (DMSO) cells, protein in an extract).
